# Measurements reported in patent US20260062447A1 (UNIVERSITY OF SOUTHAMPTON, priority 2022, published 2026).
# Experiment: general procedure: Fmoc solid-phase peptide synthesis; Wang resin pre-loaded with Fmoc amino acids (Fmoc-Leu-Wang resin); 2-chlorotrityl chloride resin; DIC / Oxyma Pure; cyclisation with HATU, HOAt and DIPEA
# Conditions: whole synthesis
row,Substance,isolated mass
1,Cyclo-CLLF(F)VY,11.9 mg
2,Cyclo-CLLF(4-NO2)VY,11.5 mg
3,Cyclo-CLLF(Br) VY,12.1 mg
4,Cyclo-CLIF(CF)IF(Br),4.5 mg
5,Cyclo-CLLF(CF3)VY [Cyclo-CLLF(CF3)VY],29.4 mg
6,Cyclo-CLL-hF-VY,29.5 mg
7,Cyclo-CLLF(CF3)V-Cha,16.2 mg
8,Cyclo-CLLF(CF3)—N-LEU-F(Br),15.2 mg
9,Cyclo-CLLF(CF3)-Abu-F(Br),32.9 mg
10,Cyclo-CLL-hCou-VY,9.4 mg
11,Cyclo-CLLF(CF3)-Aib-F(Br),3.3 mg
12,Cyclo-CLL-Nal-VY,14.0 mg
13,Cyclo-CL-Aib-F(CF3)IF(Br),24.7 mg
14,Cyclo-CLLF(Cl)VY,8.5 mg
15,Cyclo-CLLF(CF3)—NV—F(Br),23.8 mg
16,Cyclo-CLLF(CF3)V-Phg,16.1 mg
17,Cyclo-CLLF(4-tBu)VY,16.6 mg
18,Cyclo-CLLF(CF3)-hL-F(Br),33.3 mg
19,Cyclo-CLLF(CF3)VF(NO2),20.0 mg

row,Substance,isolated mass
1,Cyclo-CLL-Cha-VY,3.0 mg
2,Cyclo-CLLF(CF3)VF(CF3),31.6 mg
3,Cyclo-CLLF(CF3)VF(Br),8.3 mg
4,Cyclo-CLL-dF-VY,17.9 mg
5,Cyclo-CLLF(CF3)V-Nal,31.9 mg
6,Cyclo-CLLF(CF3)VF(I),19.8 mg
7,Cyclo-CLVF(CF3)IF(Br),0.4 mg
8,Cyclo-CLLY(Me)VY,3.7 mg
9,Cyclo-CLLF(CF3)VF(C),28.4 mg
10,Cyclo-CLLF(CF3)VF(F),28.4 mg
11,Cyclo-CLLYVY,25.1 mg
12,Cyclo-CLL-Phg-VY,22.3 mg
13,Cyclo-CLLF(CF3)VY(Me),9.2 mg
14,Cyclo-CLL-PAL-VY,16.2 mg
15,Cyclo-CLLF(I)VY,15.8 mg
16,Cyclo-CLLF(CF3)VF,62.7 mg
17,Cyclo-CLLF(CF3)LF(Br),25.9 mg
18,Cyclo-CLLF(CF3)V-4-Pal,24.7 mg
19,Cyclo-CLLF(CF3)V-hF,2.7 mg

# Same assay, conditions: whole synthesis, Analytical HPLC, scale of the general procedure 0.1 mmol
row,Substance,final HPLC purity
1,Cyclo-CLLF(F)VY,92° %
2,Cyclo-CLLF(4-NO2)VY,93%
3,Cyclo-CLLF(Br) VY,90%
4,Cyclo-CLIF(CF)IF(Br),96% purity
5,Cyclo-CLLF(CF3)VY [Cyclo-CLLF(CF3)VY],90%
6,Cyclo-CLL-hF-VY,87%
7,Cyclo-CLLF(CF3)V-Cha,97%
8,Cyclo-CLLF(CF3)—N-LEU-F(Br),95%
9,Cyclo-CLLF(CF3)-Abu-F(Br),99%
10,Cyclo-CLL-hCou-VY,91% purity
11,Cyclo-CLLF(CF3)-Aib-F(Br),89%
12,Cyclo-CLL-Nal-VY,92%
13,Cyclo-CL-Aib-F(CF3)IF(Br),96% purity
14,Cyclo-CLLF(Cl)VY,94%
15,Cyclo-CLLF(CF3)—NV—F(Br),98%
16,Cyclo-CLLF(CF3)V-Phg,92%
17,Cyclo-CLLF(4-tBu)VY,93%
18,Cyclo-CLLF(CF3)-hL-F(Br),99%
19,Cyclo-CLLF(CF3)VF(NO2),99%

row,Substance,final HPLC purity
1,Cyclo-CLL-Cha-VY,99%
2,Cyclo-CLLF(CF3)VF(CF3),99%
3,Cyclo-CLLF(CF3)VF(Br),99%
4,Cyclo-CLL-dF-VY,94%
5,Cyclo-CLLF(CF3)V-Nal,99%
6,Cyclo-CLLF(CF3)VF(I),91%
7,Cyclo-CLVF(CF3)IF(Br),97%
8,Cyclo-CLLY(Me)VY,90%
9,Cyclo-CLLF(CF3)VF(C),99%
10,Cyclo-CLLF(CF3)VF(F),95%
11,Cyclo-CLLYVY,99%
12,Cyclo-CLL-Phg-VY,87%
13,Cyclo-CLLF(CF3)VY(Me),99%
14,Cyclo-CLL-PAL-VY,89%
15,Cyclo-CLLF(I)VY,90%
16,Cyclo-CLLF(CF3)VF,95%
17,Cyclo-CLLF(CF3)LF(Br),99%
18,Cyclo-CLLF(CF3)V-4-Pal,97%
19,Cyclo-CLLF(CF3)V-hF,90%

# Same assay, conditions: whole synthesis, overall, scale of the general procedure 0.1 mmol
row,Substance,isolated yield
1,Cyclo-CLLF(F)VY,10.9%
2,Cyclo-CLLF(4-NO2)VY,10.1%
3,Cyclo-CLLF(Br) VY,7.4%
4,Cyclo-CLLF(CF3)VY [Cyclo-CLLF(CF3)VY],18.2%
5,Cyclo-CLL-hF-VY,19.3%
6,Cyclo-CLLF(CF3)V-Cha,10.2%
7,Cyclo-CLL-Nal-VY,8.9%
8,Cyclo-CLLF(Cl)VY,7.1 V %
9,Cyclo-CLLF(CF3)V-Phg,10.4%
10,Cyclo-CLLF(4-tBu)VY,10.4%
11,Cyclo-CLL-Cha-VY,2.9%
12,Cyclo-CLLF(CF3)VF(Br),4.8%
13,Cyclo-CLL-dF-VY,14.8%
14,Cyclo-CLLF(CF3)V-Nal,19.0%
15,Cyclo-CLLF(CF3)VF(I),10.8%
16,Cyclo-CLLY(Me)VY,3.3%
17,Cyclo-CLLF(CF3)VF(C),17.2%
18,Cyclo-CLLF(CF3)VF(F),17.6%
19,Cyclo-CLL-Phg-VY,15.4%
20,Cyclo-CLLF(CF3)VY(Me),5.6%
21,Cyclo-CLL-PAL-VY,15.1%
22,Cyclo-CLLF(I)VY,9.1%
23,Cyclo-CLLF(CF3)VF,39.7%
24,Cyclo-CLLF(CF3)V-4-Pal,15.6%
25,Cyclo-CLLF(CF3)V-hF,1.7%

# Same assay, conditions: whole synthesis, scale of the general procedure 0.1 mmol
row,Substance,isolated yield
1,Cyclo-CLIF(CF)IF(Br),5.1%
2,Cyclo-CLLF(CF3)—N-LEU-F(Br),17.2%
3,Cyclo-CLLF(CF3)-Abu-F(Br),38.5%
4,Cyclo-CLL-hCou-VY,11.2%
5,Cyclo-CLLF(CF3)-Aib-F(Br),3.86%
6,Cyclo-CL-Aib-F(CF3)IF(Br),28.9%
7,Cyclo-CLLF(CF3)—NV—F(Br),27.4%
8,Cyclo-CLLF(CF3)-hL-F(Br),18.6%
9,Cyclo-CLLF(CF3)VF(NO2),12.0%
10,Cyclo-CLLF(CF3)VF(CF3),18.4%
11,Cyclo-CLVF(CF3)IF(Br),0.5%
12,Cyclo-CLLF(CF3)LF(Br),29.4%
